# Results are given in words; binding and its absence hold for the method and conditions named. Binding seen in cells or lysates may run through a third protein. Some entries that bind do so weakly or less than the wild type.
# Chains of the proteins cited; added tags and fusions are not shown.
# UniProt Q16665: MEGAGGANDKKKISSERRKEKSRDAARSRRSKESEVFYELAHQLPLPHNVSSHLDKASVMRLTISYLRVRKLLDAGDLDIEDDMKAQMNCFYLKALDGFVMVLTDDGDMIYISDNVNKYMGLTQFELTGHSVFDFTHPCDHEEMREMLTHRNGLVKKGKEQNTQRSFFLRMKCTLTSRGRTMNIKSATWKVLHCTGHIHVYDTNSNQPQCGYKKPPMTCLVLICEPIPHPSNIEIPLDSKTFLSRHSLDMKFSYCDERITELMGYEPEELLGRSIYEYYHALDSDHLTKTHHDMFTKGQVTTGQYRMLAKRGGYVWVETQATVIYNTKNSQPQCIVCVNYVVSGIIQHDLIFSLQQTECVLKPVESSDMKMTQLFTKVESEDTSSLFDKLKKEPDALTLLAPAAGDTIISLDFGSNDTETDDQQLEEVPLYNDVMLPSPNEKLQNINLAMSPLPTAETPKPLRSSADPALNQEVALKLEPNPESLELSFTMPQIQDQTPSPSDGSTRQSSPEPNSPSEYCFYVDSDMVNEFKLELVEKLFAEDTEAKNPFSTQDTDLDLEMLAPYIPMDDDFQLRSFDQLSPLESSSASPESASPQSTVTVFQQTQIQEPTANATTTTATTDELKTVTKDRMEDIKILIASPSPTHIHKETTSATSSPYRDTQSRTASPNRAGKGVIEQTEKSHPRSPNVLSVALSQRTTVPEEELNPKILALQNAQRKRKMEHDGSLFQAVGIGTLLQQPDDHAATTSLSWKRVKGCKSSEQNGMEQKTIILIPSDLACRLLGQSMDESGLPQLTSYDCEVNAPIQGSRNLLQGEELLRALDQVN
# UniProt O35800: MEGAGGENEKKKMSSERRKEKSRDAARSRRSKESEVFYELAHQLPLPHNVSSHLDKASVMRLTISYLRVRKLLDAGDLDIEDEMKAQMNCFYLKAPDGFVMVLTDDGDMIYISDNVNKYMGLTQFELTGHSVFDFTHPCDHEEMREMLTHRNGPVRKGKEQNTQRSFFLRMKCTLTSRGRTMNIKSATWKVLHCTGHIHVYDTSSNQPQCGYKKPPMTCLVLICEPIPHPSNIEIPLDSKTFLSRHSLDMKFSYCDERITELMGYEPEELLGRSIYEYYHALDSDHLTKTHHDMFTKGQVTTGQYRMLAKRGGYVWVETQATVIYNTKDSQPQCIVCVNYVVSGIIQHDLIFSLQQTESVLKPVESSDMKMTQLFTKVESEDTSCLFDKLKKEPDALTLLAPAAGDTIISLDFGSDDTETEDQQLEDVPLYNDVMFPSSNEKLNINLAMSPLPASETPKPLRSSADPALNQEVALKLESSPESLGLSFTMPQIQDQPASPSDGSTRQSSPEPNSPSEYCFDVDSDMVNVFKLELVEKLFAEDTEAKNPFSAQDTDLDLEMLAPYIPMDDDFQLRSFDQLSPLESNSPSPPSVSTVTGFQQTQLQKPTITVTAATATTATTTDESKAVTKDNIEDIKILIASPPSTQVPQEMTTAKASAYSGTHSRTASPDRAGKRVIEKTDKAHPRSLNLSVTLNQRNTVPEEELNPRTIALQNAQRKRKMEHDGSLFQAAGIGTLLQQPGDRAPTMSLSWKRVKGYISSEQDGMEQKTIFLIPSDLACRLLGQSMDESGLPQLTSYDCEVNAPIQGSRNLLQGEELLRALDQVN
# UniProt P16671: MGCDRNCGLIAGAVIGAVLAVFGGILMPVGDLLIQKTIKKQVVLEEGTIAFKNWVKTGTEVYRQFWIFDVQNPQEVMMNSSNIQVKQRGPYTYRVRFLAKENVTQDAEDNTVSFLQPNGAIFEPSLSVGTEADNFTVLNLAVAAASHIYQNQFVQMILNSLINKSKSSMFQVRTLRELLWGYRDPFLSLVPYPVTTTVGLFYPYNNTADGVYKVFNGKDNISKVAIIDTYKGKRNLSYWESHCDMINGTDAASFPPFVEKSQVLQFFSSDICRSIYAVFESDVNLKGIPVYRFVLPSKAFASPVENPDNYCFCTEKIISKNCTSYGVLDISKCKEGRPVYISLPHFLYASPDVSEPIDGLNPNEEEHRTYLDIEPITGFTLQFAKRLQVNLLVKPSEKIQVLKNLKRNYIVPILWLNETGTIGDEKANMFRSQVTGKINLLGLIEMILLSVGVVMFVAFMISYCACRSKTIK
# UniProt Q07969: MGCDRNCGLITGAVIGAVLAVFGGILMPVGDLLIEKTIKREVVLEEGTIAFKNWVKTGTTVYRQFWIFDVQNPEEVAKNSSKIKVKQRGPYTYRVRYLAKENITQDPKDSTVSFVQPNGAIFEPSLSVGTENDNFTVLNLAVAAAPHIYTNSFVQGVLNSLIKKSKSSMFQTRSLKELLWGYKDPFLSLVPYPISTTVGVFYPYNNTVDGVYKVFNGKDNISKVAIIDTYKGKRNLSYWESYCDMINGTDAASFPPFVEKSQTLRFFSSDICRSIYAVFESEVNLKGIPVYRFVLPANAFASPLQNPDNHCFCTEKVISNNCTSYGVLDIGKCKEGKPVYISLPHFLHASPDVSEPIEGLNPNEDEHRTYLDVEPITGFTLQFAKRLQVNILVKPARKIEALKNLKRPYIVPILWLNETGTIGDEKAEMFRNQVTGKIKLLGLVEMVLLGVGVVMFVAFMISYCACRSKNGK
# UniProt P27986: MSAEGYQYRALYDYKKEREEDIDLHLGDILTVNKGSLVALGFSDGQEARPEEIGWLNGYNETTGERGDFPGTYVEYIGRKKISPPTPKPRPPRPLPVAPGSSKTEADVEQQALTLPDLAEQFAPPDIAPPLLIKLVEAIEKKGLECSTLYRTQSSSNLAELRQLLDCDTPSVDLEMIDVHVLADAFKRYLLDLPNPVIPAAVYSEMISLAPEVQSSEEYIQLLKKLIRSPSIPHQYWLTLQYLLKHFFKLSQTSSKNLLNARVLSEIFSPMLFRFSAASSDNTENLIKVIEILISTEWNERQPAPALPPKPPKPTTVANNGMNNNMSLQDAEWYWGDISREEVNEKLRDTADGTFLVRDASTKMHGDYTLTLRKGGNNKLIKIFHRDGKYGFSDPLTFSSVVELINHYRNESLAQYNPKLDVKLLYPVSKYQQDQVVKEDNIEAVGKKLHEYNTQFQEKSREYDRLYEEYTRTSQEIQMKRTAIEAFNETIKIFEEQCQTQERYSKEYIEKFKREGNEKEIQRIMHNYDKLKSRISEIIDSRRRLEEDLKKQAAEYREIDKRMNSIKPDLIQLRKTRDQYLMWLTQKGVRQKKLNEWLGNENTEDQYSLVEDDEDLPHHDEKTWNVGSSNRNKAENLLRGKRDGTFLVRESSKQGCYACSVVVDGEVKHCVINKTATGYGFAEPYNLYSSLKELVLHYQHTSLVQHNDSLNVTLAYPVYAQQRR
# Key:
# [1] = target: hypoxia-inducible factor-1α (human, endogenous in hPASMCs) (human (endogenous in hPASMCs)) (UniProt Q16665); assay: co-IP; lysates of hPASMCs and H9c2 cells (IP lysis buffer) incubated with anti-HIF-1α antibody (ab179483) or normal rabbit IgG overnight at 4 °C, Protein A/G agarose beads 2 h at 4 °C; western blotting for HIF-1α, CD36 and PI3K p85α
# [2] = target: hypoxia-inducible factor-1α (rat, endogenous in H9c2 cells) (rat (endogenous in H9c2)) (UniProt O35800); assay: as above
Substance,binding [1],binding [2]
"CD36, fatty acid transporter (human, endogenous in hPASMCs) (from UniProt P16671 1-472)",binds,–
"CD36, fatty acid transporter (rat, endogenous in H9c2 cells) (from UniProt Q07969 1-472)",–,binds
"phosphatidylinositol 3-kinase (PI3K) p85α (human, endogenous in hPASMCs) (from UniProt P27986 1-724)",binds,–
"phosphatidylinositol 3-kinase (PI3K) p85α (rat, endogenous in H9c2 cells) (from UniProt Q63787-1 1-724)",–,binds

# Reference: paper PMC11552344
